Measurements from the supplement of paper PMC11348887.
Structures can show the parent of a compound that is named as a salt. The list shows a part of the results. Small differences around the control level are noise.

These compounds were tested on hPSC-derived cortical neurons (WA09) (assay: nucleus roundness z-score vs screen plate; higher = rounder nuclei (more mature)). Settings: 5 µM; treatment: days 7-14 after plating, readout day 21.

Compound | nucleus roundness z-score
Oc1c(F)cc(-c2cnccc2-c2ccc(N3CCOCC3)cc2)cc1F | -0.264
N=C(N)c1ccc(N=NNc2ccc(C(=N)N)cc2)cc1 [Diminazene Aceturate] | -1.27
Oc1ccc(OCc2ccccc2)cc1 [Monobenzone] | 1.09
CN1CC[C@H](c2c(O)cc(O)c3c(=O)cc(-c4ccccc4Cl)oc23)[C@H](O)C1 [Flavopiridol HCl] | -9.13
NCCCC[C@H](N[C@@H](CCc1ccccc1)C(=O)O)C(=O)N1CCC[C@H]1C(=O)O [Lisinopril] | 0.855
CCCc1nc2c(C)cc(-c3nc4ccccc4n3C)cc2n1Cc1ccc(-c2ccccc2C(=O)O)cc1 [Telmisartan] | -0.608
CN(C)C(=O)COC(=O)Cc1ccc(OC(=O)c2ccc(NC(=N)N)cc2)cc1 [Camostat Mesilate] | 0.00646
CCN1CCN(Cc2ccc(C(=O)Nc3ccc(C)c(Oc4ccc5c(c4)CC(=O)N5)c3)cc2C(F)(F)F)CC1 | -0.492
CCCc1nn(C)c2c(=O)[nH]c(-c3cc(S(=O)(=O)N4CCN(C)CC4)ccc3OCC)nc12 [Sildenafil Citrate] | -0.409
COc1cc2ncnc(Sc3nnc(C)s3)c2cc1OC | 0.249
Cc1cccc(-c2[nH]c(C(C)(C)C)nc2-c2ccc3nccnc3c2)n1 | -3.11
N#C[C@@H]1C[C@@H]2C[C@@H]2N1C(=O)[C@@H](N)C12CC3CC(CC(O)(C3)C1)C2 [Saxagliptin hydrate] | 0.451
Cc1cc(C)c(CNC(=O)c2cc(-c3ccc(N4CCN(C)CC4)nc3)cc3c2c(C)cn3C(C)C)c(=O)[nH]1 | 0.595
COCCc1ccc(OCC(O)CNC(C)C)cc1 (centres undefined) [Metoprolol Tartrate] | -0.477
Cc1cc(OCc2nnc(SC3CCCC3)n2-c2cccnc2)ccc1-c1ccc(S(C)(=O)=O)cc1 | -0.483
COc1nc(OCc2cccc(-c3ccccc3)c2C)ccc1CNCCNC(C)=O [PD-1/PD-L1 inhibitor 2] | -3.33
CC1(C)S[C@@H]2[C@H](NC(=O)[C@H](N)c3ccccc3)C(=O)N2[C@H]1C(=O)O [Ampicillin sodium] | -1.24
O=C(c1cn(Cc2cncn2Cc2ccc(Br)cc2)cc1-c1cccc2ccccc12)N1CCOCC1 | 1.43
Cc1[nH]c2ccccc2c1CCNC(=O)c1cccs1 | 1.33
C#Cc1cccc(Nc2ncnc3cc4c(cc23)OCCOCCOCCO4)c1 [Icotinib] | 0.708

Compound | nucleus roundness z-score
CCNc1nc(Nc2cc(F)c(C(=O)N3CCOCC3)cc2OC)ncc1C(F)(F)F | 1.42
Cc1cccn2c(=O)c(-c3nnn[nH]3)cnc12 [Pemirolast potassium] | 0.755
COc1cc(OC2CCN(C)CC2)ccc1Nc1ncc2c(n1)n(C1CCCC1)c(=O)n2C | 0.177
C[C@@H](O[C@H]1OCCN(Cc2nn(P(=O)(O)O)c(=O)[nH]2)[C@H]1c1ccc(F)cc1)c1cc(C(F)(F)F)cc(C(F)(F)F)c1 [Fosaprepitant dimeglumine salt] | -2.25
c1ccc(C2CN3CCSC3=N2)cc1 (single isomer, unassigned; (-)) [(-)-Tetramisole] | -0.668
NCCCCCC(=O)O [_6-__-_Aminocaproic acid] | 0.257
CC(=O)Nc1nnc(S(N)(=O)=O)s1 [Acetazolamide] | -0.035
CCCc1nc(C)c2c(=O)nc(-c3cc(S(=O)(=O)N4CCN(CC)CC4)ccc3OCC)[nH]n12 [Vardenafil HCl Trihydrate] | 0.143
CCCCOc1ccc(OCCCN2CCOCC2)cc1 [Pramoxine HCl] | -2.03
O=C(O)/C=C/c1ccc(Cn2ccnc2)cc1 [Ozagrel] | -0.361
CCN(CC)CCOc1ccc(C(=C(Cl)c2ccccc2)c2ccccc2)cc1 [Clomifene citrate] | -4.22
O=C(O)C(Cc1c[nH]c2ccccc12)N1C(=O)c2ccccc2C1=O (centres undefined) | -0.686
COC(=O)c1ccc2c(c1)[nH]c1ncnc(NCCCN3CCCCC3)c12 | 1.16
CC(=O)S[C@@H]1CC2=CC(=O)CC[C@]2(C)[C@H]2CC[C@@]3(C)[C@@H](CC[C@@]34CCC(=O)O4)[C@H]12 [Spironolactone] | 0.665
CC12CC3CC(C)(C1)CC(N)(C3)C2 [Memantine HCl] | 0.449
C1N2CN3CN1CN(C2)C3 [Methenamine] | 0.992
Cc1ccccc1N1C(=O)c2cc(S(N)(=O)=O)c(Cl)cc2NC1C (centres undefined) [Metolazone] | 0.0121
CN1CCN2c3ncccc3Cc3ccccc3C2C1 (centres undefined) [Mirtazapine] | 1.78
CC(=O)Oc1cc(C(F)(F)F)ccc1C(=O)O [Triflusal] | -0.586

Two compounds drawn at random from the list so far:
Compound | nucleus roundness z-score
COc1cc(OC2CCN(C)CC2)ccc1Nc1ncc2c(n1)n(C1CCCC1)c(=O)n2C | 0.177
NCCCC[C@H](N[C@@H](CCc1ccccc1)C(=O)O)C(=O)N1CCC[C@H]1C(=O)O [Lisinopril] | 0.855
